{
  "source": "patent US6466814B1",
  "about": "“Method of magnetic resonance investigation” (Amersham Health AS, priority 1998, dated 2002)",
  "key": {"[1]": {"conditions": "frozen 60:40 glycerol/water, cited from earlier work"}, "[2]": {"assay": "Low-field pumping of 13C in the solid, 13C-NMR signal", "format": "physicochemical", "conditions": "6.56 T, 2.5 K, 10 minutes; stray field 7 mT for 1 s; repeated"}, "[3]": {"assay": "13C-signal enhancement after low-field pumping and dissolution (solution experiments)", "format": "physicochemical", "conditions": "35 s after leaving the cryomagnet; versus thermal equilibrium at 40° C. and 7 T; deuterium oxide", "description": "A sample of solid 1-^13C-2,2,2′,2′,2″,2″-hexadeuterotris(hydroxymethyl)nitromethane was subjected to a magnetic field of 6.56 T at a temperature of 2.5 K for 10 minutes. The sample was then removed from the centre of the magnet to the stray field (7 mT) for a duration 1 s and then returned to the magnet. After another 10 minutes the process was repeated one more.\n(§1) A sample of solid 1-^13C-2,2,2′,2′,2″,2″-hexadeuterotris(hydroxymethyl)nitromethane (20 mg) was subjected to the above-mentioned pumping procedure (see Examples 5-7) and then in less than 1 second moved to a holding field of 0.4 T where also a sample of deuterium oxide (3 ml) at a temperature of 40° C., stirred by nitrogen bubbling, was kept. […] The sample was inserted into the spectrometer and a ^13C-spectrum was recorded. […]\nas §1, with “2-^13C-2,2-bis(trideuteromethyl)-1,1,3,3-tetradeuteropropane-1,3-diol” for “1-^13C-2,2,2′,2′,2″,2″-hexadeuterotris(hydroxymethyl)nitromethane”"}, "[4]": {"assay": "13C MRI after injection of the hyperpolarised solution into a rat", "format": "in vivo", "conditions": "polarized by microwaves 70 GHz, 2.5 T, 4.2 K; dissolved in warm (40° C.) water"}},
  "note": "Like-named read-outs stand apart in the source and are kept apart here. Some entries repeat one wording, which the source may state once for all of them.",
  "data": [
    {"smiles": "NC[13C](=O)O", "note": "[Carboxy-13C labelled glycine]", "values": [
      {"measurement": "Enhancement (dynamic nuclear polarisation)", "setting": "[1]; TEMPO, 5 T and 14 K", "value": 185}
    ]},
    {"smiles": "[2H]C([2H])([2H])[13C](C([2H])([2H])[2H])(C([2H])([2H])O)C([2H])([2H])O", "note": "[2-^13C-2,2-bis(trideuteromethyl)-1,1,3,3-tetradeuteropropane-1,3-diol]", "values": [
      {"measurement": "13C-NMR signal of the solid sample after low-field pumping", "setting": "[2]", "value": "in accordance with thermal equilibrium at 6.56 T and 2.5 K"},
      {"measurement": "Enhancement factor of the 13C-signal", "setting": "[3]", "value": 21}
    ]},
    {"smiles": "CC(=O)[O-].[Na+]", "note": "[sodium acetate (1-^13C)]", "values": [
      {"measurement": "13C MRI picture after injection into a rat, single shot (Experiment 3)", "setting": "[4]", "value": "enhanced intensity and contrast"}
    ]},
    {"smiles": "[2H]C([2H])(O)[13C]([N+](=O)[O-])(C([2H])([2H])O)C([2H])([2H])O", "note": "[1-^13C-2,2,2′,2′,2″,2″-hexadeuterotris(hydroxymethyl)nitromethane]", "values": [
      {"measurement": "13C-NMR signal of the solid sample after low-field pumping", "setting": "[2]", "value": "in accordance with thermal equilibrium at 6.56 T and 2.5 K"},
      {"measurement": "Enhancement factor of the 13C-signal", "setting": "[3]", "value": 12}
    ]},
    {"smiles": "O=[13C]([O-])O.[Na+]", "note": "[NaH^13CO3, sodium bicarbonate—^13C]", "values": [
      {"measurement": "13C MRI picture after injection into a rat, single shot (Experiment 3)", "setting": "[4]", "value": "enhanced intensity and contrast"}
    ]},
    {"smiles": "[2H]C([2H])(O)[13C]1(C([2H])([2H])O)C([2H])([2H])C1([2H])[2H]", "note": "[1-^13C-1,1-bis(hydroxydideuteromethyl)-2,2,3,3-tetradeuterocyclopropane]", "values": [
      {"measurement": "13C-NMR signal of the solid sample after low-field pumping", "setting": "[2]", "value": "in accordance with thermal equilibrium at 6.56 T and 2.5 K"}
    ]},
    {"smiles": "NC[13C](=O)O", "note": "[13C-Glycine]", "values": [
      {"measurement": "Enhancement (dynamic nuclear polarisation)", "setting": "[1]; 4-amino TEMPO, 5 T and 40 K", "value": "~100"}
    ]}
  ]
}
